In doi:10.1101/203539:
Results are given in words; binding and its absence hold for the method and conditions named. Binding seen in cells or lysates may run through a third protein. These calls come from enrichment with a bait or labelling near it, and not all partners need be listed. A no says only that the protein was not detected with the bait. Tags and fused reporters may be left off the sequences shown.

The chains behind the UniProt entries cited, without tags or fusion partners.
UniProt Q8R151: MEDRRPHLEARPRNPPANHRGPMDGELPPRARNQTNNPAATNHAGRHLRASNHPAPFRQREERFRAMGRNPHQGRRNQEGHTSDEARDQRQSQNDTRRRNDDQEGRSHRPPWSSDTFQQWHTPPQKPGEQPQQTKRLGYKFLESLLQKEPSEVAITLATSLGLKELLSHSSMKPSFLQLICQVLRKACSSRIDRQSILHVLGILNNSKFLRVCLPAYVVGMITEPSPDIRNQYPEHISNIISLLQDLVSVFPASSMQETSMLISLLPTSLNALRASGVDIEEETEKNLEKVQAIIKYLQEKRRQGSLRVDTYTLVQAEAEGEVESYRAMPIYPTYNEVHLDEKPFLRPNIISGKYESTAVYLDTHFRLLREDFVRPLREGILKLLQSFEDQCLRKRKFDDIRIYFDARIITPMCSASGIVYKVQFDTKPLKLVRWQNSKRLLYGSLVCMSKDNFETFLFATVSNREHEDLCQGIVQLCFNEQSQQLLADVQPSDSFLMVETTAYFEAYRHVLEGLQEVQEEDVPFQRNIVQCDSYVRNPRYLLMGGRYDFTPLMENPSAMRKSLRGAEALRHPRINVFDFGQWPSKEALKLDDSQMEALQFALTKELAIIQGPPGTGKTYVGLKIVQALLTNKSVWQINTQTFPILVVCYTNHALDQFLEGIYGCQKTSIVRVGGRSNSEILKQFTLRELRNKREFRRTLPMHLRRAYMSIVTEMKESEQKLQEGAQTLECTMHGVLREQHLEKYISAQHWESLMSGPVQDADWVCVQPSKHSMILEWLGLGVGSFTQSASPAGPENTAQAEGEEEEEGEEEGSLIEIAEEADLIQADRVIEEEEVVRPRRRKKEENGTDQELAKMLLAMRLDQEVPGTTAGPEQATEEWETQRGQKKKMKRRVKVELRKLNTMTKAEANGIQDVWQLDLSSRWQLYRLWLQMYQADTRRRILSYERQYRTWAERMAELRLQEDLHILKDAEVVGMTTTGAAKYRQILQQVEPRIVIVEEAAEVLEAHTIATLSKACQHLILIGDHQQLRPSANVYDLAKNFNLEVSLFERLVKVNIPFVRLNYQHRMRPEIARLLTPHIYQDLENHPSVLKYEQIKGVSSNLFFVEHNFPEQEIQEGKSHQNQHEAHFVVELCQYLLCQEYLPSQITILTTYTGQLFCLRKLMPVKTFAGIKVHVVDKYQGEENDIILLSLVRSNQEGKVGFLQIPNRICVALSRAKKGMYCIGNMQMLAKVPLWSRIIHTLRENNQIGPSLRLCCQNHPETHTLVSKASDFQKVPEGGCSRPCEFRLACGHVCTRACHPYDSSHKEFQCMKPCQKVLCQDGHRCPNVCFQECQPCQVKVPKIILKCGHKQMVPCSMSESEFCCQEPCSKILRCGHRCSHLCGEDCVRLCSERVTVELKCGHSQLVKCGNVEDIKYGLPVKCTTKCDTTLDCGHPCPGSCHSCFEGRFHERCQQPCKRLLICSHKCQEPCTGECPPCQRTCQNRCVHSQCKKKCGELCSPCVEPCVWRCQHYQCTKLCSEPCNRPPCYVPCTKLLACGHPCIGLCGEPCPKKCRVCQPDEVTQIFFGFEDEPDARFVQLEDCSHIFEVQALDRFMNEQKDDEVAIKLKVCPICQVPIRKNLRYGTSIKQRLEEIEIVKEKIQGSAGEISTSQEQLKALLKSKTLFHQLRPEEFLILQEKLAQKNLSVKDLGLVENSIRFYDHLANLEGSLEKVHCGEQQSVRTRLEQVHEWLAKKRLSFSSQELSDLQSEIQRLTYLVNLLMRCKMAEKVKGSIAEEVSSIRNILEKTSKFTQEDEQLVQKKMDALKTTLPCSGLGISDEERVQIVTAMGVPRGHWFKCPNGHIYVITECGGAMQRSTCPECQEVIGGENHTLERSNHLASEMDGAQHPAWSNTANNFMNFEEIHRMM
UniProt Q6PHQ9: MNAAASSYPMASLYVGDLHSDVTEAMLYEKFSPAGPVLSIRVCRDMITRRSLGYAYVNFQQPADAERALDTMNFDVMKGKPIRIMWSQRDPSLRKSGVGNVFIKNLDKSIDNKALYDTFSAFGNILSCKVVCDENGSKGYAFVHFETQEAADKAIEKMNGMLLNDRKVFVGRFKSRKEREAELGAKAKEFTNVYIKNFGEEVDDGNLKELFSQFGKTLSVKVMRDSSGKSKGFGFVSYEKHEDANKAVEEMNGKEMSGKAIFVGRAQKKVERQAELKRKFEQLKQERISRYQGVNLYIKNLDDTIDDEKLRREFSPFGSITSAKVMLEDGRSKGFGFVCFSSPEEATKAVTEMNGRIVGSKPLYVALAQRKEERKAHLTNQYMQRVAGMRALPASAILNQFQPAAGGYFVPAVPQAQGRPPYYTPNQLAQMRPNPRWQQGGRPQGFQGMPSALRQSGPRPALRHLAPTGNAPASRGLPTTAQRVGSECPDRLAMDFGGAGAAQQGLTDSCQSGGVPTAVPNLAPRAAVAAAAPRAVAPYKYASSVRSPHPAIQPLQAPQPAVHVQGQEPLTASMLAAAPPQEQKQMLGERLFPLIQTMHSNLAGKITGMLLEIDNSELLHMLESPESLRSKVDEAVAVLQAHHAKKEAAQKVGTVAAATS
UniProt Q9Z204: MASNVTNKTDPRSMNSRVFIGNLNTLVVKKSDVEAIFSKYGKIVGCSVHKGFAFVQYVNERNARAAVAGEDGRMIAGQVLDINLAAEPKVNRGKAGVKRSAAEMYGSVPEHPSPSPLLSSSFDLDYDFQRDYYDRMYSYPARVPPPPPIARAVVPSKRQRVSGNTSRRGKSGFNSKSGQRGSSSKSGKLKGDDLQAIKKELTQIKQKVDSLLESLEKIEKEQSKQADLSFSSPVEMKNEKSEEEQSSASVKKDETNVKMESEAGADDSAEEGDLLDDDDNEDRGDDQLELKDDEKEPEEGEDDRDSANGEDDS

Biological target: T1, biotagged Csde1 (cold shock domain protein e1) (UniProt Q91W50)
T1 sequence (chain, biotin on the biotag (biotin ligase BirA coexpressed)): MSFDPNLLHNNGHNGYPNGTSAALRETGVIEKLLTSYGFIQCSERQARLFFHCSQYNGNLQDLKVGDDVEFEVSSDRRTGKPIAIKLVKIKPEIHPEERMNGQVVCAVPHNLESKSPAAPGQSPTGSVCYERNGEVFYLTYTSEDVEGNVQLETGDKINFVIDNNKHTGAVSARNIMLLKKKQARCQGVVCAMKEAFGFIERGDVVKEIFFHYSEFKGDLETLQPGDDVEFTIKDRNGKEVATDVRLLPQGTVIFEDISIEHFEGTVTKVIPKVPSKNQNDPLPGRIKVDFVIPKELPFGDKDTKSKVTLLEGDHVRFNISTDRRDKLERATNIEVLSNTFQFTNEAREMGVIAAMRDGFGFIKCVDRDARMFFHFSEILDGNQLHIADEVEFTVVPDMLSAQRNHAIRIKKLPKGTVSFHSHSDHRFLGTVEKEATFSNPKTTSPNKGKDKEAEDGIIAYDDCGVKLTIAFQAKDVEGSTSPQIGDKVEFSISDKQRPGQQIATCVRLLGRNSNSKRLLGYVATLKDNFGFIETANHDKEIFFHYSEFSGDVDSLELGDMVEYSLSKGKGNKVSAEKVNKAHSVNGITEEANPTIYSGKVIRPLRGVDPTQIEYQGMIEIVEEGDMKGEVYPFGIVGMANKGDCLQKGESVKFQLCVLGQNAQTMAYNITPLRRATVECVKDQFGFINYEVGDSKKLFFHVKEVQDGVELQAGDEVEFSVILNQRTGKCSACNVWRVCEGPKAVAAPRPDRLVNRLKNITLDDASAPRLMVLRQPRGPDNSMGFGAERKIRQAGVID
Test: affinity purification with mass spectrometry

| Substance | binding |
| --- | --- |
| Znfx1 (Zinc finger NFx1-type containing 1) (from UniProt Q8R151 1-1909) | binds |
| Pabpc4 (from UniProt Q6PHQ9 1-660) | binds |
| hnRNP (heterogeneous nuclear binding protein) C1/C2 (from UniProt Q9Z204 1-313) | no binding |
